Reference: patent publication US4891319A, “Protection of proteins and the like” (Quadrant Bioresources Limited, priority 1985, dated 1990)

Tested on: R-phycoerythrin
Assay: Fluorescence of R-phycoerythrin after drying with or without trehalose
Format: physicochemical, marine Rhodophyte
Procedure: The phycobiliprotein R-phycoerythrin was purified from a marine Rhodophyte. This brilliantly fluorescent red protein was blotted onto nitrocellulose membrane or glass fibre filter paper in phosphate buffer with and without 10% w/v added trehalose and dried at room temperature.
R-phycoerythrin at 5 mg/ml was dried at 37° on glass fibre filter paper (Whatman GF/C), cellulose filter paper (Whatman No. 1) or on nitrocellulose membrane (Schleicher & Schull 0.45μ pore size) in the presence of 5% trehalose in solution and in its absence. In the absence of trehalose the spots of dried R-phycoerythrin changed colour to a purplish red and lost >90% of their fluorescence intensity.

R Phycoerythrin
colour and fluorescence after drying (absence of trehalose, dried at room temperature): turned purple and lost its ability to fluoresce orange/red

OC[C@H]1O[C@H](O[C@H]2O[C@H](CO)[C@@H](O)[C@H](O)[C@H]2O)[C@H](O)[C@@H](O)[C@@H]1O [Trehalose, α-D-glucopyranosyl-α-D-glucopyranoside]
colour and fluorescence after drying (5% trehalose, dried at 37° on glass fibre, cellulose or nitrocellulose): retained both colour and fluorescence
colour and fluorescence after drying (10% w/v trehalose, dried at room temperature on nitrocellulose or glass fibre): retained its colour, and fluoresced just as brightly as the protein in solution
retention of fluorescent properties on drying (dried completely in the presence of trehalose): without loss of its fluorescent properties
